Results taken from the supplement of paper PMC8728848.
Some of the results follow.

What was measured:
Test in all cases: glycan array binding signal (z-score within array); higher = stronger binding
Conditions in all cases: glycan notation: IUPAC condensed, linker removed
[1] = biological target: Fuc(a1-2)Gal6S(b1-4)GlcNAc
In short: (§1)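 Glycan array data were curated from 3228 arrays in the Consortium for Functional Glycomics database and kept only where the protein sequence was available. Glycan names were converted to IUPAC-condensed notation, and columns mapping to the same glycan were averaged. The binding signal is a within-array Z-score, averaged across arrays of the same protein sequence at different concentrations or buffers and across linkers. Negative Z-scores can be read as non-binding.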

Fuc(a1-2)[Gal(a1-3)]Gal = biological target: Fuc(a1-2)[Gal(a1-3)]Gal
In short: as §1

[2] = biological target: Fuc(a1-2)[Gal(a1-3)]Gal(b1-3)GlcNAc
In short: as §1

[3] = biological target: Fuc(a1-2)[Gal(a1-3)]Gal(b1-3)GlcNAc(b1-2)Man(a1-3)[Fuc(a1-2)[Gal(a1-3)]Gal(b1-3)GlcNAc(b1-2)Man(a1-6)]Man(b1-4)GlcNAc(b1-4)GlcNAc
In short: as §1

[4] = biological target: Fuc(a1-2)[Gal(a1-3)]Gal(b1-4)Glc
In short: as §1

[5] = biological target: Fuc(a1-2)[Gal(a1-3)]Gal(b1-4)GlcNAc
In short: as §1

[6] = biological target: Fuc(a1-2)[Gal(a1-3)]Gal(b1-4)GlcNAc(b1-2)Man(a1-3)[Fuc(a1-2)[Gal(a1-3)]Gal(b1-4)GlcNAc(b1-2)Man(a1-6)]Man(b1-4)GlcNAc(b1-4)GlcNAc
In short: as §1

[7] = biological target: Fuc(a1-2)[Gal(a1-3)]Gal(b1-4)[Fuc(a1-3)]GlcNAc
In short: as §1

[8] = biological target: Fuc(a1-2)[Gal(a1-4)]Gal(b1-4)GlcNAc
In short: as §1

[9] = biological target: Fuc(a1-2)[GalNAc(a1-3)]Gal
In short: as §1

[10] = biological target: Fuc(a1-2)[GalNAc(a1-3)]Gal(b1-3)GalNAc(a1-3)[Fuc(a1-2)]Gal(b1-4)GlcNAc
In short: as §1

[11] = biological target: Fuc(a1-2)[GalNAc(a1-3)]Gal(b1-3)GlcNAc
In short: as §1

[12] = biological target: Fuc(a1-2)[GalNAc(a1-3)]Gal(b1-3)GlcNAc(b1-2)Man(a1-3)[Fuc(a1-2)[GalNAc(a1-3)]Gal(b1-3)GlcNAc(b1-2)Man(a1-6)]Man(b1-4)GlcNAc(b1-4)GlcNAc
In short: as §1

[13] = biological target: Fuc(a1-2)[GalNAc(a1-3)]Gal(b1-4)Glc
In short: as §1

[14] = biological target: Fuc(a1-2)[GalNAc(a1-3)]Gal(b1-4)GlcNAc
In short: as §1

[15] = biological target: Fuc(a1-2)[GalNAc(a1-3)]Gal(b1-4)GlcNAc(b1-2)Man(a1-3)[Fuc(a1-2)[GalNAc(a1-3)]Gal(b1-4)GlcNAc(b1-2)Man(a1-6)]Man(b1-4)GlcNAc(b1-4)GlcNAc
In short: as §1

[16] = biological target: Fuc(a1-2)[GalNAc(a1-3)]Gal(b1-4)GlcNAc(b1-2)Man(a1-3)[GalNAc(a1-3)[Fuc(a1-2)]Gal(b1-4)GlcNAc(b1-2)Man(a1-6)]Man(b1-4)GlcNAc(b1-4)GlcNAc
In short: as §1

[17] = biological target: Fuc(a1-2)[GalNAc(a1-3)]Gal(b1-4)GlcNAc(b1-3)Gal(b1-4)GlcNAc
In short: as §1

[18] = biological target: Fuc(a1-2)[GalNAc(a1-3)]Gal(b1-4)GlcNAc(b1-3)Gal(b1-4)GlcNAc(b1-3)Gal(b1-4)GlcNAc
In short: as §1

[19] = biological target: Fuc(a1-2)[GalNAc(a1-3)]Gal(b1-4)[Fuc(a1-3)]GlcNAc
In short: as §1

[20] = biological target: Fuc(a1-2)[GalNAc(a1-4)]Gal(b1-4)GlcNAc
In short: as §1

[21] = biological target: Fuc(a1-2)[GalNAc(b1-3)]Gal
In short: as §1

Fuc(a1-3)GlcNAc = biological target: Fuc(a1-3)GlcNAc
In short: as §1

[22] = biological target: Fuc(a1-3)[Gal(b1-4)]Glc6S
In short: as §1

[23] = biological target: Fuc(a1-3)[Gal(b1-4)]GlcNAc
In short: as §1

[24] = biological target: Fuc(a1-3)[Gal(b1-4)]GlcNAc(b1-2)Man(a1-3)[Fuc(a1-3)[Gal(b1-4)]GlcNAc(b1-2)Man(a1-6)]Man(b1-4)GlcNAc(b1-4)GlcNAc
In short: as §1

[25] = biological target: Fuc(a1-3)[Gal(b1-4)]GlcNAc(b1-2)Man(a1-6)[Gal(b1-4)GlcNAc(b1-2)Man(a1-3)]Man(b1-4)GlcNAc(b1-4)GlcNAc
In short: as §1

[26] = biological target: Fuc(a1-3)[Gal(b1-4)]GlcNAc(b1-3)Gal(b1-3)[Fuc(a1-4)]GlcNAc
In short: as §1

[27] = biological target: Fuc(a1-3)[Gal(b1-4)]GlcNAc(b1-3)GalNAc
In short: as §1

[28] = biological target: Fuc(a1-3)[Gal(b1-4)]GlcNAc(b1-4)Gal(b1-4)[Fuc(a1-3)]GlcNAc
In short: as §1

[29] = biological target: Fuc(a1-3)[Gal(b1-4)]GlcNAc(b1-4)Gal(b1-4)[Fuc(a1-3)]GlcNAc(b1-4)Gal(b1-4)[Fuc(a1-3)]GlcNAc
In short: as §1

[30] = biological target: Fuc(a1-3)[Gal(b1-4)]GlcNAc(b1-6)[Gal(b1-3)GlcNAc(b1-3)]Gal(b1-4)Glc
In short: as §1

[31] = biological target: Fuc(a1-3)[Gal(b1-4)]GlcNAc6S
In short: as §1

[32] = biological target: Fuc(a1-3)[Gal3S(b1-4)]Glc6S
In short: as §1

[33] = biological target: Fuc(a1-3)[Gal3S(b1-4)]GlcNAc
In short: as §1

[34] = biological target: Fuc(a1-3)[Gal3S(b1-4)]GlcNAc6S
In short: as §1

[35] = biological target: Fuc(a1-3)[GalNAc(b1-4)]GlcNAc
In short: as §1

Fuc(a1-4)GlcNAc = biological target: Fuc(a1-4)GlcNAc
In short: as §1

Fuc(b1-3)GlcNAc = biological target: Fuc(b1-3)GlcNAc
In short: as §1

Gal(a1-2)Gal = biological target: Gal(a1-2)Gal
In short: as §1

Gal(a1-3)Gal = biological target: Gal(a1-3)Gal
In short: as §1

Gal(a1-3)Gal(b1-3)GlcNAc = biological target: Gal(a1-3)Gal(b1-3)GlcNAc
In short: as §1

[36] = biological target: Gal(a1-3)Gal(b1-3)GlcNAc(b1-2)Man(a1-3)[Gal(a1-3)Gal(b1-3)GlcNAc(b1-2)Man(a1-6)]Man(b1-4)GlcNAc(b1-4)GlcNAc
In short: as §1

[37] = biological target: Gal(a1-3)Gal(b1-3)[Fuc(a1-4)]GlcNAc(b1-2)Man(a1-3)[Gal(a1-3)Gal(b1-3)[Fuc(a1-4)]GlcNAc(b1-2)Man(a1-6)]Man(b1-4)GlcNAc(b1-4)GlcNAc
In short: as §1

Gal(a1-3)Gal(b1-4)Glc = biological target: Gal(a1-3)Gal(b1-4)Glc
In short: as §1

B1: SBD (Rhizopus oryzae), P07683 (protein)
chain: ASIPSSASVQLDSYNYDGSTFSGKIYVKNIAYSKKVTVVYADGSDNWNNNGNIIAASFSGPISGSNYEYWTFSASVKGIKEFYIKYEVSGKTYYDNNNSANYQVS
glycan array binding signal (z-score) [1]: -0.28 | glycan array binding signal (z-score) (Fuc(a1-2)[Gal(a1-3)]Gal): 0.598 | glycan array binding signal (z-score) [2]: 0.167 | glycan array binding signal (z-score) [3]: 0.476 | glycan array binding signal (z-score) [4]: -0.385 | glycan array binding signal (z-score) [5]: -0.321 | glycan array binding signal (z-score) [6]: -0.055 | glycan array binding signal (z-score) [7]: 0.522 | glycan array binding signal (z-score) [8]: 0.276 | glycan array binding signal (z-score) [9]: 0.587 | glycan array binding signal (z-score) [10]: -1.02 | glycan array binding signal (z-score) [11]: -0.258 | glycan array binding signal (z-score) [12]: 0.06 | glycan array binding signal (z-score) [13]: -0.2 | glycan array binding signal (z-score) [14]: -0.384 | glycan array binding signal (z-score) [15]: -0.079 | glycan array binding signal (z-score) [16]: 0.417 | glycan array binding signal (z-score) [17]: 0.147 | glycan array binding signal (z-score) [18]: -0.03 | glycan array binding signal (z-score) [19]: 0.375 | glycan array binding signal (z-score) [20]: -0.226 | glycan array binding signal (z-score) [21]: -0.318 | glycan array binding signal (z-score) (Fuc(a1-3)GlcNAc): 0.165 | glycan array binding signal (z-score) [22]: 0.068 | glycan array binding signal (z-score) [23]: 0.132 | glycan array binding signal (z-score) [24]: -0.273 | glycan array binding signal (z-score) [25]: -0.263 | glycan array binding signal (z-score) [26]: -0.2 | glycan array binding signal (z-score) [27]: 1.73 | glycan array binding signal (z-score) [28]: 0.673 | glycan array binding signal (z-score) [29]: 0.197 | glycan array binding signal (z-score) [30]: -0.418 | glycan array binding signal (z-score) [31]: -0.323 | glycan array binding signal (z-score) [32]: 0.589 | glycan array binding signal (z-score) [33]: -0.076 | glycan array binding signal (z-score) [34]: 0.248 | glycan array binding signal (z-score) [35]: -0.229 | glycan array binding signal (z-score) (Fuc(a1-4)GlcNAc): -0.455 | glycan array binding signal (z-score) (Fuc(b1-3)GlcNAc): -0.152 | glycan array binding signal (z-score) (Gal(a1-2)Gal): -0.007 | glycan array binding signal (z-score) (Gal(a1-3)Gal): -0.697 | glycan array binding signal (z-score) (Gal(a1-3)Gal(b1-3)GlcNAc): 0.112 | glycan array binding signal (z-score) [36]: 0.791 | glycan array binding signal (z-score) [37]: 1.9 | glycan array binding signal (z-score) (Gal(a1-3)Gal(b1-4)Glc): -0.213
